Laboratory results: PubChem BioAssay AID504804 (Drosophila RNAi Screening Center, 2011)
Purpose: 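Knock-downs shielding fly cells from apoptosis caused by DNA damage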 (primary screen). Cell system: Drosophila Kc cells. Reagents: long dsRNA against Drosophila genes, 0.5 µg dsRNA per well. Timing: 96 h (48 h knock-down, then 48 h drug). Conditions: doxorubicin 5 µg/ml for 48 h, added 48 h after dsRNA. Read-out: 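Viability measured as cellular ATP by luminescence after 48 h knock-down then 48 h doxorubicin at 5 µg/ml; unnormalised plate counts for each replicate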. Direction: raw ATP luminescence: higher = more viable cells, protection from doxorubicin. Rule for the call: 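z-score of 2 or more over plate mean in both duplicates, retained only when retests and separate dsRNAs confirm the protection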.
In all, the deposit lists about 19,000 reagents; shown is a random part of those with a known target gene and a result. In the full data, 47 (0.25%) were called active. 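Signals are raw, not normalised; exact z-scores behind calls not deposited; actives needed confirmation, so some wells reaching 2 SD are inactive.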 A number with no mark means an inactive call.

target gene	amplicon	raw ATP luminescence, replicate 1	raw ATP luminescence, replicate 2
Cpr76Bb (Cuticular protein 76Bb)	DRSC11061	74260	68697
Opbp (Optix-binding protein)	DRSC04966	43793	43690
CG12617	DRSC02176	58753	71970
qkr58E-1 (quaking related 58E-1)	DRSC04709	56730	46570
CG17490	DRSC03794	62380	56200
CG17490	DRSC03797	62493	55533
scny (scrawny)	DRSC10509	48293	70967
scny (scrawny)	DRSC10510	65367	64780
CG42232	DRSC15018	36350	39400
CG42232	DRSC15019	36467	36513
CG11200	DRSC06060	51360	57333
CG11454	DRSC00310	1.02e5	81270
Mtch	DRSC08679	54020	56497
Culd (CUB and LDLa domain)	DRSC10262	42797	50660
CG10694	DRSC14263	60170	48590
mtsh (mitoshell)	DRSC03070	53437	68523
CG32260	DRSC08084	1.72e5	1.26e5
CG14518	DRSC14870	61910	75730
Psn (Presenilin)	DRSC11743	78177	67403
CG11168	DRSC14292	36533	36023
Polr2J (RNA polymerase II subunit J)	DRSC02995	80100	75147
CG15864	DRSC15122	57637	56897
CG1801	DRSC20556	2.84e5	3.06e5
Dim1	DRSC00563	22773	21083
CG8750	DRSC11037	51977	51313
amrt (amaretto)	DRSC19378	2.67e5	2.99e5
Bub1 (Bub1 kinase)	DRSC02357	44370	19063
Cdc2rk (Cdc2-related kinase)	DRSC07590	43280	71330
su(f) (suppressor of forked)	DRSC20907	3.89e5	3.21e5
Ugt37A2 (UDP-glycosyltransferase family 37 member A2)	DRSC15861	52153	55220
LManIII (Lysosomal alpha-mannosidase III)	DRSC03221	42050	60327
CG14180 (retired record)	DRSC10179	78260	65887
CG7778	DRSC03067	94870	68010
Spn75F (Serpin 75F)	DRSC09589	58783	60867
CG11951	DRSC14442	60190	51020
Ak2 (Adenylate kinase 2)	DRSC04043	37403	47377
Reg-5 (Rhythmically expressed gene 5)	DRSC04647	73253	54353
l(2)k10201 (lethal (2) k10201)	DRSC06439	42437	83720
l(2)k10201 (lethal (2) k10201)	DRSC07640	39597	72417
CG7607	DRSC10889	64967	65280
CG5504	DRSC04701	78417	66347
CG13003	DRSC19522	3.39e5	3.20e5
CG7213	DRSC10787	62680	78353
C1GalTA (Core 1 Galactosyltransferase A)	DRSC03246	82330	67267
Ir76b (Ionotropic receptor 76b)	DRSC10831	68613	59067
ytr (yantar)	DRSC04306	91300	93663
Ice1 (Interacts with the C terminus of ELL 1)	DRSC04191	30870	41903
CG15546	DRSC15084	42730	41520
mRpL24 (mitochondrial ribosomal protein L24)	DRSC03113	1.09e5	80673
CG15831 (retired record)	DRSC20816	2.93e5	2.66e5
CG11313	DRSC14295	54750	40830
CG11710	DRSC20485	4.01e5	3.52e5
CG12398	DRSC19454	2.46e5	1.97e5
CG34375	DRSC14684	71380	56980
CG34375	DRSC14685	52070	54880
Dp (DP transcription factor)	DRSC07402	49467	38450
osa	DRSC17022	42497	30217
CG40485	DRSC20624	4.13e5	3.09e5
Rpt5 (Regulatory particle triple-A ATPase 5)	DRSC16842	39200	43223
CG33474	DRSC05218	74637	97457
CG7420	DRSC00704	92337	60570
spz3 (spatzle 3)	DRSC02391	43057	57717
spz3 (spatzle 3)	DRSC03008	40673	57633
Gyc88E (Guanylyl cyclase at 88E)	DRSC15547	1.02e5	70110
Wdr33 (WD repeat domain 33)	DRSC12162	92990	43903
CG10000	DRSC14170	54890	37560
CG3494	DRSC04375	42963	56440
CG7715	DRSC16301	63940	81450
NtR	DRSC04628	94073	56027
alpha4GT1 (alpha1,4-galactosyltransferase 1)	DRSC00488	1.11e5	82283
spn-B (spindle B)	DRSC17063	84940	62890
BicC (Bicaudal C)	DRSC02005	54570	53503
CG14182	DRSC10181	64650	67167
CG13000	DRSC19519	2.72e5	2.21e5
Tmem214 (Transmembrane protein 214)	DRSC02924	38667	56177
Tmem214 (Transmembrane protein 214)	DRSC02925	43780	57607
CG12460 (retired record)	DRSC20970	1.93e5	2.03e5
Xxylt (Xyloside xylosyltransferase)	DRSC04107	61627	70583
Coa8 (Cytochrome c oxidase assembly factor 8)	DRSC17959	64410	46610
ovo	DRSC18812	53860	61630
CG32284	DRSC08025	1.43e5	1.55e5
dpr18 (defective proboscis extension response 18)	DRSC19606	4.00e5	3.43e5
mRpL35 (mitochondrial ribosomal protein L35)	DRSC14586	71990	74300
CG11807	DRSC06087	57930	70960

Quoted from above, 4 entries:
target gene	amplicon	raw ATP luminescence, replicate 1	raw ATP luminescence, replicate 2
Ice1 (Interacts with the C terminus of ELL 1)	DRSC04191	30870	41903
CG15546	DRSC15084	42730	41520
mRpL24 (mitochondrial ribosomal protein L24)	DRSC03113	1.09e5	80673
CG15831 (retired record)	DRSC20816	2.93e5	2.66e5
